These are yes or no findings as the source states them, for the method shown. Some binding calls cover weakened binding; strength is not graded here.
How the values were obtained:
[1] = molecular target: aggregated tau in FFPE brain sections of a PD (Pick's disease) patient (human) (UniProt P10636); test: immunohistochemistry on FFPE brain sections, semi-quantitative score (severe, +++)
[2] = molecular target: aggregated tau in FFPE brain sections of an AD patient (human) (UniProt P10636); test: as above
[3] = molecular target: aggregated tau in FFPE brain sections of a PD (Pick's disease) patient (human) (UniProt P10636); test: immunohistochemistry on FFPE brain sections
[4] = molecular target: aggregated tau in FFPE brain sections of an AD patient (human) (UniProt P10636); test: immunohistochemistry on FFPE brain sections
[5] = molecular target: aggregated tau in FFPE brain sections of a normal individual (minimal tau aggregation) (human) (UniProt P10636); test: immunohistochemistry on FFPE brain sections, semi-quantitative score (mild, +)
[6] = molecular target: tau fibrils purified from AD brain homogenates (human) (UniProt P10636); test: ELISA on plates coated with tau fibrils purified from AD brain

Amino acid sequences for entries named in this document (tags omitted). A change or cut given only in a name is not applied to a line headed by its entry. Chains listed by the source or under a name are the forms on record and can include a tag or linker.
aggregated tau in FFPE brain sections of a PD (Pick's disease) patient (P10636, form named): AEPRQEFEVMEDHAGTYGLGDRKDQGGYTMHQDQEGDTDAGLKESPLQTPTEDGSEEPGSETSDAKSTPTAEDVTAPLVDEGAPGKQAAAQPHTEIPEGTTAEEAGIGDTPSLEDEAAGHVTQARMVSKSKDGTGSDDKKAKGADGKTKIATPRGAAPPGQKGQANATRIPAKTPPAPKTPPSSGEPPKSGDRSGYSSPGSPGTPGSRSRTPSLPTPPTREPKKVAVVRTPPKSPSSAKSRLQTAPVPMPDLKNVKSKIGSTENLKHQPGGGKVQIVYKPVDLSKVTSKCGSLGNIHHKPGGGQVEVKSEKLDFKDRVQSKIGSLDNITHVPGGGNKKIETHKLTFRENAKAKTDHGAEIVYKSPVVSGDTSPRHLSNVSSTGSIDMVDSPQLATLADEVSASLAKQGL
tau fibrils purified from AD brain homogenates (P10636, form named): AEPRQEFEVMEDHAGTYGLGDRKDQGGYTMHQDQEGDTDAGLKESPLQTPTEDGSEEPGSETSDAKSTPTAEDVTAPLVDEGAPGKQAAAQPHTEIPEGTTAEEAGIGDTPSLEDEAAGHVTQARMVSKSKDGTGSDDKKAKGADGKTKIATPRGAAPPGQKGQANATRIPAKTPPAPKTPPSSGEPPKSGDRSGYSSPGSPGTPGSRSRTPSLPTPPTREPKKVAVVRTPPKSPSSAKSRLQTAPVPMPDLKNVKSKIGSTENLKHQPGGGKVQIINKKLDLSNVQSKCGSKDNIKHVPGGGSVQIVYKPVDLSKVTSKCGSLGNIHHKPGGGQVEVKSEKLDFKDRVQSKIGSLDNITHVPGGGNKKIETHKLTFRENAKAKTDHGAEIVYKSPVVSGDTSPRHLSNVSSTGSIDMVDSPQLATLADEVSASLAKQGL

Measured: binding

B1: Exemplified anti-Tau antibody (having both HCs of SEQ ID NO. 68 and both LCs of SEQ ID NO. 67) (antibody, human IgG4 S228P, kappa, F234A L235A, V domains shown)
VH: EVQLVQSGAEVKKPGESLKISCKGSGYTFSNYWIEWVRQMPGKGLEWMGEILPGSDSIKYEKNFKGQVTISADKSISTAYLQWSSLKASDTAMYYCARRGNYVDDWGQGTLVTVSS
VL: EIVLTQSPGTLSLSPGERATLSCRSSQSLVHSNQNTYLHWYQQKPGQAPRLLIYKVDNRFSGIPDRFSGSGSGTDFTLTISRLEPEDFAVYYCSQSTLVPLTFGGGTKVEIKR
binds: [1] | [2] | [3] | [4] | [5] | [6]

From patent US20210301003A1 (Eli Lilly, published 2021)
